# Laboratory results as given in publication PMC11832342.
# T1: GFP-tagged NHP2 (Arabidopsis) (UniProt Q9LEY9)
# T1 sequence: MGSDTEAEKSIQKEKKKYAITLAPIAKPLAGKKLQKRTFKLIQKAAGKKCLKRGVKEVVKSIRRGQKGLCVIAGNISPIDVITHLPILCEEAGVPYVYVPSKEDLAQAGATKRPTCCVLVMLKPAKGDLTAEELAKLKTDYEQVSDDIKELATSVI
# B1: AGO10 (protein, UniProt Q9XGW1 1-988)
# chain: MPIRQMKDSSETHLVIKTQPLKHHNPKTVQNGKIPPPSPSPVTVTTPATVTQSQASSPSPPSKNRSRRRNRGGRKSDQGDVCMRPSSRPRKPPPPSQTTSSAVSVATAGEIVAVNHQMQMGVRKNSNFAPRPGFGTLGTKCIVKANHFLADLPTKDLNQYDVTITPEVSSKSVNRAIIAELVRLYKESDLGRRLPAYDGRKSLYTAGELPFTWKEFSVKIVDEDDGIINGPKRERSYKVAIKFVARANMHHLGEFLAGKRADCPQEAVQILDIVLRELSVKRFCPVGRSFFSPDIKTPQRLGEGLESWCGFYQSIRPTQMGLSLNIDMASAAFIEPLPVIEFVAQLLGKDVLSKPLSDSDRVKIKKGLRGVKVEVTHRANVRRKYRVAGLTTQPTRELMFPVDENCTMKSVIEYFQEMYGFTIQHTHLPCLQVGNQKKASYLPMEACKIVEGQRYTKRLNEKQITALLKVTCQRPRDRENDILRTVQHNAYDQDPYAKEFGMNISEKLASVEARILPAPWLKYHENGKEKDCLPQVGQWNMMNKKMINGMTVSRWACVNFSRSVQENVARGFCNELGQMCEVSGMEFNPEPVIPIYSARPDQVEKALKHVYHTSMNKTKGKELELLLAILPDNNGSLYGDLKRICETELGLISQCCLTKHVFKISKQYLANVSLKINVKMGGRNTVLVDAISCRIPLVSDIPTIIFGADVTHPENGEESSPSIAAVVASQDWPEVTKYAGLVCAQAHRQELIQDLYKTWQDPVRGTVSGGMIRDLLISFRKATGQKPLRIIFYRDGVSEGQFYQVLLYELDAIRKACASLEPNYQPPVTFIVVQKRHHTRLFANNHRDKNSTDRSGNILPGTVVDTKICHPTEFDFYLCSHAGIQGTSRPAHYHVLWDENNFTADGIQSLTNNLCYTYARCTRSVSIVPPAYYAHLAAFRARFYLEPEIMQDNGSPGKKNTKTTTVGDVGVKPLPALKENVKRVMFYC
# B2: AGO1 (protein, UniProt O04379 1-1048)
# chain: MVRKRRTDAPSEGGEGSGSREAGPVSGGGRGSQRGGFQQGGGQHQGGRGYTPQPQQGGRGGRGYGQPPQQQQQYGGPQEYQGRGRGGPPHQGGRGGYGGGRGGGPSSGPPQRQSVPELHQATSPTYQAVSSQPTLSEVSPTQVPEPTVLAQQFEQLSVEQGAPSQAIQPIPSSSKAFKFPMRPGKGQSGKRCIVKANHFFAELPDKDLHHYDVTITPEVTSRGVNRAVMKQLVDNYRDSHLGSRLPAYDGRKSLYTAGPLPFNSKEFRINLLDEEVGAGGQRREREFKVVIKLVARADLHHLGMFLEGKQSDAPQEALQVLDIVLRELPTSRYIPVGRSFYSPDIGKKQSLGDGLESWRGFYQSIRPTQMGLSLNIDMSSTAFIEANPVIQFVCDLLNRDISSRPLSDADRVKIKKALRGVKVEVTHRGNMRRKYRISGLTAVATRELTFPVDERNTQKSVVEYFHETYGFRIQHTQLPCLQVGNSNRPNYLPMEVCKIVEGQRYSKRLNERQITALLKVTCQRPIDREKDILQTVQLNDYAKDNYAQEFGIKISTSLASVEARILPPPWLKYHESGREGTCLPQVGQWNMMNKKMINGGTVNNWICINFSRQVQDNLARTFCQELAQMCYVSGMAFNPEPVLPPVSARPEQVEKVLKTRYHDATSKLSQGKEIDLLIVILPDNNGSLYGDLKRICETELGIVSQCCLTKHVFKMSKQYMANVALKINVKVGGRNTVLVDALSRRIPLVSDRPTIIFGADVTHPHPGEDSSPSIAAVVASQDWPEITKYAGLVCAQAHRQELIQDLFKEWKDPQKGVVTGGMIKELLIAFRRSTGHKPLRIIFYRDGVSEGQFYQVLLYELDAIRKACASLEAGYQPPVTFVVVQKRHHTRLFAQNHNDRHSVDRSGNILPGTVVDSKICHPTEFDFYLCSHAGIQGTSRPAHYHVLWDENNFTADGLQSLTNNLCYTYARCTRSVSIVPPAYYAHLAAFRARFYMEPETSDSGSMASGSMARGGGMAGRSTRGPNVNAAVRPLPALKENVKRVMFYC
# B3: AGO2 (protein, UniProt Q9SHF3 1-1014)
# chain: MERGGYRGGRGDGRGRGGRGYGGGGGGGEQGRDRGYGGGEQGRGRGSERGGGNRGQGRGEQQDFRSQSQRGPPPGHGGRGTTQFQQPRPQVAPQPSQAPASYAGSVGGVAGRGAWGRKPQVPSDSASPSTSTTVVSEPVRVAEVMNLKPSVQVATSDRKEPMKRPDRGGVVAVRRVNLYVNHYKVNFNPESVIRHYDVEIKGEIPTKKVSRFELAMVRDKVFTDNPDEFPLAMTAYDGQKNIFSAVELPTGSYKVEYPKTEEMRGRSYTFTIKQVNVLKLGDLKEYMTGRSSFNPRDVLQGMDVVMKEHPSKCMITVGKSFFTRETEPDEDFRFGVIAAKGYRHTLKPTAQGLSLCLDYSVLAFRKAMSVIEYLKLYFNWSDMRQFRRRDVEEELIGLKVTVNHRKNKQKLTIVGLSMQNTKDIKFDLIDQEGNEPPRKTSIVEYFRIKYGRHIVHKDIPCLDLGKNGRQNFVPMEFCDLVEGQIYPKDNLDKDSALWLKKLSLVNPQQRQRNIDKMIKARNGPSGGEIIGNFGLKVDTNMTPVEGRVLKAPSLKLAERGRVVREEPNPRQNNQWNLMKKGVTRGSIVKHWAVLDFTASERFNKMPNDFVDNLIDRCWRLGMQMEAPIVYKTSRMETLSNGNAIEELLRSVIDEASRKHGGARPTLVLCAMSRKDDGYKTLKWIAETKLGLVTQCFLTGPATKGGDQYRANLALKMNAKVGGSNVELMDTFSFFKKEDEVMFIGADVNHPAARDKMSPSIVAVVGTLNWPEANRYAARVIAQPHRKEEIQGFGDACLELVKAHVQATGKRPNKIVIFRDGVSDAQFDMVLNVELLDVKLTFEKNGYNPKITVIVAQKRHQTRFFPATNNDGSDKGNVPSGTVVDTKVIHPYEYDFYLCSHHGGIGTSKPTHYYTLWDELGFTSDQVQKLIFEMCFTFTRCTKPVSLVPPVYYADMVAFRGRMYHEASSREKNFKQPRGASTSAASLASSLSSLTIEDKAIFKLHAELENVMFFV
# B4: AGO5 (protein, UniProt Q9SJK3 1-997)
# chain: MSNRGGGGHGGASRGRGGGRRSDQRQDQSSGQVAWPGLQQSYGGRGGSVSAGRGRGNVGRGENTGDLTATQVPVASAVSGGRGRGNIGDPTFSVASSSKTVSVASSSKEESKNTEVSETMSNLQITSTETKPEMTSLPPASSKAVTFPVRPGRGTLGKKVMVRANHFLVQVADRDLYHYDVSINPEVISKTVNRNVMKLLVKNYKDSHLGGKSPAYDGRKSLYTAGPLPFDSKEFVVNLAEKRADGSSGKDRPFKVAVKNVTSTDLYQLQQFLDRKQREAPYDTIQVLDVVLRDKPSNDYVSVGRSFFHTSLGKDARDGRGELGDGIEYWRGYFQSLRLTQMGLSLNIDVSARSFYEPIVVTDFISKFLNIRDLNRPLRDSDRLKVKKVLRTLKVKLLHWNGTKSAKISGISSLPIRELRFTLEDKSEKTVVQYFAEKYNYRVKYQALPAIQTGSDTRPVYLPMELCQIDEGQRYTKRLNEKQVTALLKATCQRPPDRENSIKNLVVKNNYNDDLSKEFGMSVTTQLASIEARVLPPPMLKYHDSGKEKMVNPRLGQWNMIDKKMVNGAKVTSWTCVSFSTRIDRGLPQEFCKQLIGMCVSKGMEFKPQPAIPFISCPPEHIEEALLDIHKRAPGLQLLIVILPDVTGSYGKIKRICETELGIVSQCCQPRQVNKLNKQYMENVALKINVKTGGRNTVLNDAIRRNIPLITDRPTIIMGADVTHPQPGEDSSPSIAAVVASMDWPEINKYRGLVSAQAHREEIIQDLYKLVQDPQRGLVHSGLIREHFIAFRRATGQIPQRIIFYRDGVSEGQFSQVLLHEMTAIRKACNSLQENYVPRVTFVIVQKRHHTRLFPEQHGNRDMTDKSGNIQPGTVVDTKICHPNEFDFYLNSHAGIQGTSRPAHYHVLLDENGFTADQLQMLTNNLCYTYARCTKSVSIVPPAYYAHLAAFRARYYMESEMSDGGSSRSRSSTTGVGQVISQLPAIKDNVKEVMFYC
# Target: T1, GFP-tagged NHP2 (Arabidopsis)
# Assay: affinity purification with mass spectrometry; IP of GFP-tagged NHP2 from 0.6 g plant tissue with anti-GFP magnetic microbeads (lysis buffer 50 mM Tris-HCl pH 8.0, 50 mM NaCl, 1% Triton X-100); control IP from Col-0 plants; 3 replicates; LC-MS/MS
row,Binder,binding
1,B1,binds
2,B2,binds
3,B3,binds
4,B4,binds

# Results are given in words; binding and its absence hold for the method and conditions named. In cells and extracts the contact can be indirect. A yes stands for co-enrichment or nearness to the bait. Other partners may have been found. Sequences can lack the tags named with a protein.
